Experimental data taken from PubChem BioAssay AID1487 (National Center for Advancing Translational Sciences (NCATS), 2009).
“And” between values parts separate entries of the source, which are not always exact repeats. Equal values may be shown once. Some of the results follow. Further columns of the screen follow, without active or inactive calls. Most of these compounds were active or inconclusive in the main read-out, so they are no random draw. Potencies come from curve fits of mixed quality, noted in brackets.

Assay: qHTS Assay for Modulators of Lamin A Splicing
Conditions: HeLa LMNA splicing GFP/RFP minigene ratio, 48 h
Method in brief: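 S3 HeLa cells stably expressing lamin A-EGFP splicing minigene plus DsRed2, 600 cells/well, 48 h compound exposure at 37C. Laser-scanning cytometry; analysed as GFP (500-530 nm)/RFP (575-640 nm) total intensity ratio; 0.5% DMSO vehicle.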

[1] = measured here: RFP viability control channel
[2] = measured here: GFP splicing reporter channel

SMILES: C=CCn1c(C)cc(C(=O)CN2NS(=O)(=O)c3ccccc3C2=O)c1C
- AC50 [1]: 1.12 µM [falling, full curve, poor fit]

SMILES: Cc1ccc(OCCSc2ncnc3nc[nH]c23)cc1
- AC50 [1]: 22.4 µM [rising, single point]

SMILES: COc1ccccc1C(=O)N1CCN(c2cccc(C(F)(F)F)c2)CC1
- AC50 [1]: 15.8 µM [rising, partial curve, poor fit]

SMILES: Cc1cc(C)c2cc(CN(Cc3nnnn3Cc3ccc(F)cc3)C3CCCC3)c(=O)[nH]c2c1
- AC50 [2]: 3.55 µM [falling, partial curve, poor fit]
- AC50 [1]: 20 µM [falling, partial curve, poor fit]

SMILES: Cc1ccc2nc(NC(=O)CSc3nccn3Cc3ccc(F)cc3)sc2c1
- AC50 [2]: 0.0355 µM [rising, full curve, poor fit]

SMILES: O=C(COc1ccccc1F)Nc1ccc(S(=O)(=O)NCc2ccco2)cc1
- AC50 [2]: 31.6 µM [rising, single point]
- AC50 [1]: 35.5 µM [rising, single point]

SMILES: Cc1nc2ncccn2c1-c1csc(NCc2ccco2)n1
- AC50 [1]: 25.1 µM [rising, single point]

SMILES: COc1ccc(/C=N\NC(=O)c2ccc(Cn3cc(Br)c([N+](=O)[O-])n3)o2)c(OC)c1C
- AC50 [1]: 2.51 µM [falling, partial curve, poor fit]

SMILES: CC(=O)Nc1sc(NC(=O)c2ccc(Cl)cc2)nc1-c1cccs1
- AC50 [2]: 14.1 µM [rising, partial curve]

SMILES: CCSC1=C(C#N)C2(CCCCC2)C2=C(CC(C)(C)CC2=O)N1
- AC50 [2]: 1.41 µM [rising, full curve, poor fit]

SMILES: CCNc1nc(Oc2ccc(OC)cc2)cc(C(F)(F)F)n1
- AC50 [2]: 7.94 µM [rising, partial curve, poor fit]

SMILES: Cc1cc(NC(=O)CS(=O)(=O)c2cn(Cc3cccc(F)c3)c3ccccc23)no1
- AC50 [1]: 35.5 µM [rising, single point]

SMILES: CCOC(=O)c1ccc(NC(=O)CCc2nc(-c3ccccc3)no2)cc1
- AC50 [1]: 31.6 µM [rising, partial curve]

SMILES: Cc1[nH]c2ccccc2c1C(=O)CN1C(=O)NC(C)(c2ccc(Cl)cc2Cl)C1=O (stereo not drawn)
- AC50 [1]: 35.5 µM [rising, single point]

SMILES: COc1cccc(N2CCN(C(=O)CN3CCSc4ccccc43)CC2)c1
- AC50 [2]: 0.0316 µM [rising, full curve, poor fit]

SMILES: COc1cc(C(=O)Nc2ccc(-c3nc4cc(C)ccc4o3)c(O)c2)cc(OC)c1OC
- AC50 [2]: 14.1 µM [falling, partial curve]

SMILES: O=C(c1ccncc1)N1CCN(C(=O)c2cccc3ccccc23)CC1
- AC50 [2]: 5.62 µM [rising, single point]
- AC50 [1]: 5.62 µM [rising, single point]

SMILES: COc1ccc2cc3[n+](cc2c1OC)CCc1cc2c(cc1-3)OCO2
- AC50 [2]: 2.82 µM [falling, full curve] and 3.55 µM [rising, single point]
- AC50 [1]: 11.2 µM [rising, single point] and 7.08 µM [rising, partial curve]

SMILES: Cc1ccccc1CCNC(=O)c1ccc2c(c1)nc1n2CCCCC1
- AC50 [1]: 20 µM [rising, single point]

SMILES: COc1cc(N2CCCC2)c(OC)cc1/C=C(/C#N)c1ccc(F)cc1
- AC50 [2]: 25.1 µM [rising, partial curve, poor fit]
- AC50 [1]: 35.5 µM [rising, single point]

SMILES: CCCCOc1ccc(-c2cc(C(F)(F)F)c(C#N)c(SCC(=O)O)n2)cc1
- AC50 [2]: 22.4 µM [rising, single point]
- AC50 [1]: 31.6 µM [rising, single point]

SMILES: Cc1c(Cl)cccc1N/C(SCC(=O)N1CCCCCC1)=C(/C#N)c1nc2ccccc2s1
- AC50 [2]: 6.31 µM [rising, partial curve]
- AC50 [1]: 11.2 µM [rising, partial curve]

SMILES: COC(=O)c1ccccc1NC(=O)CSc1nc(C)c(Cl)c(C)c1C#N
- AC50 [2]: 35.5 µM [falling, single point]

SMILES: COc1ccc(-c2cc(=O)c3ccccc3[nH]2)cc1
- AC50 [1]: 1 µM [rising, partial curve]

SMILES: O=C(Nc1cccc(F)c1)N1CC=C(n2c(=O)[nH]c3ccccc32)CC1
- AC50 [1]: 31.6 µM [rising, single point]

SMILES: COc1ccc(-c2noc(Cc3ccccc3OC)n2)cc1
- AC50 [1]: 35.5 µM [rising, single point]

SMILES: C=CCOC(=O)c1sc(NC(=O)c2ccco2)nc1C
- AC50 [2]: 7.94 µM [rising, partial curve]
- AC50 [1]: 14.1 µM [rising, partial curve]

SMILES: COc1cccc(-c2cc(C(=O)Nc3cc(C)n(Cc4ccc(Cl)cc4)n3)no2)c1
- AC50 [1]: 2.51 µM [rising, single point]

SMILES: COc1ccccc1NC(=O)Cn1nc(-c2ccc(Cl)cc2)c2ccccc2c1=O
- AC50 [2]: 2 µM [rising, partial curve]

SMILES: COc1ccc(-c2cc(-c3ccccc3)c(C#N)c(S(C)=O)n2)cc1 (stereo not drawn)
- AC50 [2]: 35.5 µM [falling, single point]

SMILES: O=C(Nc1ccccc1)c1cc(S(=O)(=O)N2CCOCC2)cs1
- AC50 [1]: 12.6 µM [rising, single point]

SMILES: Cc1ccccc1Cn1c2ccccc2c2cn[nH]c(=O)c21
- AC50 [2]: 20 µM [rising, partial curve, poor fit]
- AC50 [1]: 14.1 µM [rising, single point]

SMILES: O=C(COC(=O)c1ccccc1NCc1ccco1)Nc1ccc2c(c1)OCO2
- AC50 [1]: 0.01 µM [falling, full curve, poor fit]

SMILES: c1ccc2[nH]c(CSc3nc4ccccc4s3)nc2c1
- AC50 [1]: 12.6 µM [rising, partial curve]

SMILES: COc1ccc(-c2nc(CCNC(=O)c3ccc(Br)o3)cs2)cc1
- AC50 [1]: 14.1 µM [rising, partial curve]

SMILES: O=C(NCCC1=CCCCC1)C1CCN(S(=O)(=O)c2ccc(-n3cnnn3)cc2)CC1
- AC50 [2]: 12.6 µM [rising, single point]
- AC50 [1]: 15.8 µM [rising, single point]

SMILES: COC(=O)c1cnn(-c2cc(Oc3cccc(C)c3)ncn2)c1N
- AC50 [1]: 25.1 µM [rising, single point]

SMILES: CN(C)CCCN1C(=O)CSC1c1ccc([N+](=O)[O-])cc1 (stereo not drawn)
- AC50 [2]: 28.2 µM [rising, single point]

SMILES: Fc1ccc(NC(=S)NCCc2ccc(Cl)cc2)cc1
- AC50 [1]: 12.6 µM [rising, single point]

SMILES: O=C(Cc1ccccc1)N/N=C/c1ccccc1Cl
- AC50 [1]: 17.8 µM [rising, partial curve, poor fit]

SMILES: Cc1ccc(Nc2sc(C(=O)c3ccccc3)c(N)c2C(N)=O)cc1
- AC50 [2]: 20 µM [rising, single point]
- AC50 [1]: 14.1 µM [rising, single point]

SMILES: COc1ccc(-c2nc3c(c4c2C[C@H](c2ccccc2)OC4)CN(C(=O)NCc2ccco2)CC3)c(C)c1
- AC50 [2]: 2.24 µM [rising, partial curve, poor fit]

SMILES: CCCn1c(SCC(=O)Nc2cc(Cl)ccc2Cl)n[nH]c1=O
- AC50 [2]: 2.51 µM [falling, partial curve]

SMILES: O=C1Nc2ccccc2N=C(c2ccccc2)c2ccccc21
- AC50 [1]: 0.00562 µM [falling, full curve, poor fit]

SMILES: NC(=O)c1ccsc1NC(=O)CSc1nnc(Nc2ccccc2)s1
- AC50 [2]: 35.5 µM [rising, single point]

SMILES: COC(=O)c1c(-c2ccc3ccccc3c2)csc1NC(=O)Cc1ccc(OC)c(OC)c1
- AC50 [1]: 17.8 µM [falling, single point]

SMILES: CC(C)n1c(NCc2c[nH]c3ccccc23)nc2ccccc21
- AC50 [1]: 35.5 µM [rising, single point]

SMILES: Cc1ccnc(NC(=O)CSc2cc(=O)n(C)c3ccccc23)c1
- AC50 [1]: 3.16 µM [falling, partial curve, poor fit]

SMILES: Cc1noc(C)c1-c1cc(NCc2cccs2)ncn1
- AC50 [2]: 15.8 µM [falling, partial curve]

SMILES: CCOC(=O)c1cc(C(=O)OCC)c(=O)[nH]c1N1CCCCC1
- AC50 [1]: 0.794 µM [falling, full curve, poor fit]

SMILES: O=S(=O)(NC1CC2CCC1C2)c1ccc2c(c1)OCCO2 (stereo not drawn)
- AC50 [1]: 25.1 µM [rising, single point]

SMILES: Cc1ccc(Cl)cc1NC(=O)c1ccc(Cn2cc(Cl)cn2)cc1
- AC50 [2]: 35.5 µM [rising, single point]
- AC50 [1]: 35.5 µM [rising, single point]

SMILES: COCC(C)Nc1ncnc2c1cnn2-c1ccc(C)c(C)c1 (stereo not drawn)
- AC50 [2]: 0.224 µM [falling, full curve, poor fit]

SMILES: CC(=O)C1=C(C)N(Cc2ccccc2)C(=O)N[C@H]1c1cccc(C(F)(F)F)c1
- AC50 [2]: 31.6 µM [rising, single point]

SMILES: COc1cccc(C(=O)/C=C/Nc2ccc(S(=O)(=O)Nc3cccc(C(C)=O)c3)cc2)c1
- AC50 [2]: 5.01 µM [rising, partial curve]
- AC50 [1]: 10 µM [rising, partial curve]

SMILES: Cc1cccc(C(CC(=O)NCCc2ccccc2)c2ccccc2)c1O (stereo not drawn)
- AC50 [1]: 7.08 µM [rising, partial curve, poor fit]

SMILES: CC(C)(C)C(=O)OCOC(=O)[C@@H]1N2C(=O)[C@@H](N=CN3CCCCCC3)[C@H]2SC1(C)C
- AC50 [2]: 1.58 µM [falling, single point]
- AC50 [1]: 0.398 µM [rising, full curve, poor fit]

SMILES: Cc1ccc(S(=O)(=O)NC(C)C(c2cccs2)N2CCN(c3ccccc3)CC2)cc1 (stereo not drawn)
- AC50 [2]: 17.8 µM [rising, single point]
- AC50 [1]: 20 µM [rising, partial curve]
